This assay can be described thus: qHTS Assay for Modulators of Lamin A Splicing. Particulars: HeLa LMNA splicing GFP/RFP minigene ratio, 48 h. In outline:
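S3 HeLa cells stably expressing lamin A-EGFP splicing minigene plus DsRed2, 600 cells/well, 48 h compound exposure at 37C. Laser-scanning cytometry; analysed as GFP (500-530 nm)/RFP (575-640 nm) total intensity ratio; 0.5% DMSO vehicle.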
For orientation: In qHTS, concentration-response curves come from the screen itself.

Setting [1] is: measured here: GFP splicing reporter channel.
The mark [2] stands for this setting: measured here: RFP viability control channel.

Each structure is given as a SMILES string. Several values for one entry are separate records, joined by “and”; a condition that tells them apart may be missing. Equal entries are not always repeated. The list shows a part of the results. Shown are side measurements of this screen, not its main read-out; they come without a call. Compounds called inactive in the main read-out are mostly missing here. Potencies come from curve fits of mixed quality, noted in brackets.

In general, AC50 refers to the concentration giving half of the maximal activity seen.

Turning to `COc1ccc(CSCC(=O)N/N=C/c2ccccc2O)cc1`, the half-maximal activity concentration (AC50) was 8.91 µM [falling, partial curve, poor fit] under setting [1] and 35.5 µM [falling, single point] under setting [2].
Consider `CC(C)O`, for which the AC50 runs as follows: under setting [1], 0.0282 µM [rising, full curve, poor fit]; under setting [2], 1.12 µM [falling, single point].
With `COc1cc(/C=N/NC(=S)Nc2cccc(S(=O)(=O)N(C)C)c2)ccc1O`, the AC50 under setting [1] is 8.91 µM [rising, partial curve, poor fit] and the AC50 under setting [2] is 5.01 µM [rising, partial curve, poor fit].
As to `COc1ccc(NC(=S)N2CCN(c3ccccn3)CC2)cc1OC`, the AC50 under setting [1] is 0.0282 µM [falling, full curve, poor fit].
`COc1ccccc1NC(=O)c1cnc(Nc2ccccc2OC)c2ccccc12`: under setting [2], the concentration at half-maximal activity (AC50) is 0.794 µM [rising, full curve, poor fit].
Regarding `COc1ccc(OCC(=O)Nc2ccc(S(=O)(=O)Nc3cc(C)nc(C)n3)cc2)cc1`, the concentration at half-maximal activity (AC50) under setting [1] was 6.31 µM [rising, single point] and the half-maximal activity concentration (AC50) under setting [2] is 0.251 µM [rising, partial curve, poor fit].
For the compound `CCc1c(C)nc2ncnn2c1N1CCC(C(=O)NCc2ccc3c(c2)OCO3)CC1`, the AC50 under setting [2] was 10 µM [rising, single point].
On the same count and under the same terms, the same measure for `Oc1ccccc1N=Nc1ccccc1O`: 5.62 µM [rising, single point].
As to `COC(=O)Nc1nc2ccc(Sc3ccccc3)cc2[nH]1`, the concentration at half-maximal activity (AC50) under setting [1] was 708 nM [falling, full curve] and 8.91 µM [rising, partial curve, poor fit]; the AC50 under setting [2] is 316 nM [rising, full curve] and 5.01 µM [rising, full curve].
As to `COc1ccc(C2/C(=C(/O)c3ccc(OC(C)C)cc3)C(=O)C(=O)N2CCCN2CCOCC2)cc1` (stereo not given), the AC50 under setting [2] was 0.0316 µM [falling, full curve, poor fit].
Turning to `COCCn1c(=O)[nH]c2cc(C(=O)NCCN3CCN(c4ccccc4F)CC3)ccc2c1=O`, the AC50 is 3.55 µM [rising, partial curve] under setting [1] and 11.2 µM [rising, partial curve] under setting [2].
As to `O=C(CSC1=Nc2ccccc2N=C(c2ccc(F)cc2)C1)NCc1ccccc1Cl`, under setting [1], the AC50 was 0.0178 µM [falling, full curve, poor fit].
As for `CN=C(Nc1cc(Cl)ccc1Cl)SC1CC(=O)N(c2ccc(C(=O)OC)cc2)C1=O` (stereo not given), the AC50 under setting [1] was 12.6 µM [falling, partial curve].
With `CCOc1ccc(CNC(=O)c2sc3ncnc(N(C)C4CCCCC4)c3c2C)cc1`, the AC50 under setting [2] was 35.5 µM [falling, single point].

The values are drawn from PubChem BioAssay AID1487 (National Center for Advancing Translational Sciences (NCATS), 2009).
